This is one part of the list.
How the values were obtained:
Test in all cases: glycan array binding signal (z-score within array); higher = stronger binding
Details in all cases: glycan notation: IUPAC condensed, linker removed
[1] = target: GalNAc(a1-3)GalNAc(b1-3)Gal(a1-4)Gal(b1-4)Glc
How it was run: (§1)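 Glycan array data were curated from 3228 arrays in the Consortium for Functional Glycomics database and kept only where the protein sequence was available. Glycan names were converted to IUPAC-condensed notation, and columns mapping to the same glycan were averaged. The binding signal is a within-array Z-score, averaged across arrays of the same protein sequence at different concentrations or buffers and across linkers. Negative Z-scores can be read as non-binding.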

[2] = target: GalNAc(a1-3)GalNAc(b1-3)Gal(a1-4)Gal(b1-4)GlcNAc
How it was run: as §1

GalNAc(b1-3)Gal = target: GalNAc(b1-3)Gal
How it was run: as §1

[3] = target: GalNAc(b1-3)Gal(a1-4)Gal(b1-4)GlcNAc
How it was run: as §1

[4] = target: GalNAc(b1-3)Gal(a1-4)Gal(b1-4)GlcNAc(b1-3)Gal(b1-4)Glc
How it was run: as §1

[5] = target: GalNAc(b1-3)Gal(a1-6)Gal(b1-4)Glc
How it was run: as §1

GalNAc(b1-3)GalNAc = target: GalNAc(b1-3)GalNAc
How it was run: as §1

GalNAc(b1-3)GlcNAc = target: GalNAc(b1-3)GlcNAc
How it was run: as §1

GalNAc(b1-4)Gal(b1-4)Glc = target: GalNAc(b1-4)Gal(b1-4)Glc
How it was run: as §1

GalNAc(b1-4)GlcNAc = target: GalNAc(b1-4)GlcNAc
How it was run: as §1

[6] = target: GalNAc(b1-4)GlcNAc(b1-2)Man
How it was run: as §1

[7] = target: GalNAc(b1-4)GlcNAc(b1-2)Man(a1-3)[GalNAc(b1-4)GlcNAc(b1-2)Man(a1-6)]Man(b1-4)GlcNAc(b1-4)GlcNAc
How it was run: as §1

[8] = target: GalNAc(b1-4)GlcNAc(b1-3)GalNAc(b1-4)GlcNAc
How it was run: as §1

GalNAc(b1-4)GlcNAc6S = target: GalNAc(b1-4)GlcNAc6S
How it was run: as §1

GalNAc(b1-6)GalNAc = target: GalNAc(b1-6)GalNAc
How it was run: as §1

GalNAc3S(b1-4)GlcNAc = target: GalNAc3S(b1-4)GlcNAc
How it was run: as §1

GalNAc3S(b1-4)GlcNAc3S = target: GalNAc3S(b1-4)GlcNAc3S
How it was run: as §1

[9] = target: GalNAc3S(b1-4)[Fuc(a1-3)]GlcNAc
How it was run: as §1

GalNAc4S6S(b1-4)GlcNAc = target: GalNAc4S6S(b1-4)GlcNAc
How it was run: as §1

GalNAc6S(b1-4)GlcNAc = target: GalNAc6S(b1-4)GlcNAc
How it was run: as §1

Glc(a1-4)Glc = target: Glc(a1-4)Glc
How it was run: as §1

[10] = target: Glc(a1-4)Glc(a1-4)Glc(a1-4)Glc
How it was run: as §1

Glc(a1-6)Glc(a1-6)Glc = target: Glc(a1-6)Glc(a1-6)Glc
How it was run: as §1

[11] = target: Glc(a1-6)Glc(a1-6)Glc(a1-6)Glc
How it was run: as §1

Glc(b1-4)Glc = target: Glc(b1-4)Glc
How it was run: as §1

Glc(b1-6)Glc = target: Glc(b1-6)Glc
How it was run: as §1

GlcA(b1-3)Gal = target: GlcA(b1-3)Gal
How it was run: as §1

GlcA(b1-3)GlcNAc = target: GlcA(b1-3)GlcNAc
How it was run: as §1

GlcA(b1-6)Gal = target: GlcA(b1-6)Gal
How it was run: as §1

[12] = target: GlcA3S(b1-3)Gal(b1-4)GlcNAc(b1-2)Man
How it was run: as §1

[13] = target: GlcA3S(b1-3)Gal(b1-4)GlcNAc(b1-3)Gal(b1-4)Glc
How it was run: as §1

[14] = target: GlcNAc(a1-3)Gal(b1-4)GlcNAc
How it was run: as §1

[15] = target: GlcNAc(a1-4)Gal(b1-3)GlcNAc
How it was run: as §1

[16] = target: GlcNAc(a1-4)Gal(b1-4)GalNAc
How it was run: as §1

[17] = target: GlcNAc(a1-4)Gal(b1-4)GlcNAc
How it was run: as §1

[18] = target: GlcNAc(a1-4)Gal(b1-4)GlcNAc(b1-3)Gal(b1-4)Glc
How it was run: as §1

[19] = target: GlcNAc(a1-4)Gal(b1-4)GlcNAc(b1-3)Gal(b1-4)GlcNAc
How it was run: as §1

[20] = target: GlcNAc(a1-4)Gal(b1-4)GlcNAc(b1-3)Gal(b1-4)GlcNAc(b1-3)Gal(b1-4)GlcNAc
How it was run: as §1

[21] = target: GlcNAc(a1-4)Gal(b1-4)GlcNAc(b1-3)Gal(b1-4)[Fuc(a1-3)]GlcNAc(b1-3)Gal(b1-4)[Fuc(a1-3)]GlcNAc
How it was run: as §1

[22] = target: GlcNAc(a1-6)Gal(b1-4)GlcNAc
How it was run: as §1

[23] = target: GlcNAc(b1-2)Gal(b1-3)GalNAc
How it was run: as §1

[24] = target: GlcNAc(b1-2)Man(a1-3)[GlcNAc(b1-2)Man(a1-6)]Man(b1-4)GlcNAc(b1-4)GlcNAc
How it was run: as §1

[25] = target: GlcNAc(b1-2)Man(a1-3)[GlcNAc(b1-2)Man(a1-6)]Man(b1-4)GlcNAc(b1-4)[Fuc(a1-6)]GlcNAc
How it was run: as §1

[26] = target: GlcNAc(b1-2)Man(a1-3)[GlcNAc(b1-4)][GlcNAc(b1-2)Man(a1-6)]Man(b1-4)GlcNAc(b1-4)GlcNAc
How it was run: as §1

[27] = target: GlcNAc(b1-2)Man(a1-3)[GlcNAc(b1-4)][GlcNAc(b1-2)Man(a1-6)]Man(b1-4)GlcNAc(b1-4)[Fuc(a1-6)]GlcNAc
How it was run: as §1

[28] = target: GlcNAc(b1-2)[GlcNAc(b1-4)]Man(a1-3)[GlcNAc(b1-2)Man(a1-6)]Man(b1-4)GlcNAc(b1-4)GlcNAc
How it was run: as §1

[29] = target: GlcNAc(b1-2)[GlcNAc(b1-4)]Man(a1-3)[GlcNAc(b1-4)][GlcNAc(b1-2)Man(a1-6)]Man(b1-4)GlcNAc(b1-4)GlcNAc
How it was run: as §1

[30] = target: GlcNAc(b1-2)[GlcNAc(b1-4)]Man(a1-3)[GlcNAc(b1-4)][GlcNAc(b1-2)[GlcNAc(b1-6)]Man(a1-6)]Man(b1-4)GlcNAc(b1-4)GlcNAc
How it was run: as §1

[31] = target: GlcNAc(b1-2)[GlcNAc(b1-4)]Man(a1-3)[GlcNAc(b1-4)][GlcNAc(b1-2)[GlcNAc(b1-6)]Man(a1-6)]Man(b1-4)GlcNAc(b1-4)[Fuc(a1-6)]GlcNAc
How it was run: as §1

[32] = target: GlcNAc(b1-2)[GlcNAc(b1-6)]Man(a1-6)[GlcNAc(b1-2)Man(a1-3)]Man(b1-4)GlcNAc(b1-4)GlcNAc
How it was run: as §1

[33] = target: GlcNAc(b1-2)[GlcNAc(b1-6)]Man(a1-6)[GlcNAc(b1-2)Man(a1-3)]Man(b1-4)GlcNAc(b1-4)[Fuc(a1-6)]GlcNAc
How it was run: as §1

[34] = target: GlcNAc(b1-2)[GlcNAc(b1-6)]Man(a1-6)[GlcNAc(b1-2)Man(a1-3)][GlcNAc(b1-4)]Man(b1-4)GlcNAc(b1-4)GlcNAc
How it was run: as §1

[35] = target: GlcNAc(b1-2)[GlcNAc(b1-6)]Man(a1-6)[GlcNAc(b1-4)][GlcNAc(b1-2)Man(a1-3)]Man(b1-4)GlcNAc(b1-4)GlcNAc
How it was run: as §1

KISKRILTGKK [NK11 (Sus scrofa)]
glycan array binding signal (z-score) [1]: -0.15
glycan array binding signal (z-score) [2]: 0.323
glycan array binding signal (z-score) (GalNAc(b1-3)Gal): -0.435
glycan array binding signal (z-score) [3]: 0.262
glycan array binding signal (z-score) [4]: 0.414
glycan array binding signal (z-score) [5]: -0.885
glycan array binding signal (z-score) (GalNAc(b1-3)GalNAc): -0.863
glycan array binding signal (z-score) (GalNAc(b1-3)GlcNAc): -0.718
glycan array binding signal (z-score) (GalNAc(b1-4)Gal(b1-4)Glc): -0.229
glycan array binding signal (z-score) (GalNAc(b1-4)GlcNAc): -0.338
glycan array binding signal (z-score) [6]: -1.45
glycan array binding signal (z-score) [7]: -0.461
glycan array binding signal (z-score) [8]: -0.419
glycan array binding signal (z-score) (GalNAc(b1-4)GlcNAc6S): 2.55
glycan array binding signal (z-score) (GalNAc(b1-6)GalNAc): -0.974
glycan array binding signal (z-score) (GalNAc3S(b1-4)GlcNAc): 0.468
glycan array binding signal (z-score) (GalNAc3S(b1-4)GlcNAc3S): 1.96
glycan array binding signal (z-score) [9]: 0.203
glycan array binding signal (z-score) (GalNAc4S6S(b1-4)GlcNAc): 1.08
glycan array binding signal (z-score) (GalNAc6S(b1-4)GlcNAc): 0.009
glycan array binding signal (z-score) (Glc(a1-4)Glc): -0.441
glycan array binding signal (z-score) [10]: -0.119
glycan array binding signal (z-score) (Glc(a1-6)Glc(a1-6)Glc): -0.591
glycan array binding signal (z-score) [11]: -0.034
glycan array binding signal (z-score) (Glc(b1-4)Glc): -0.842
glycan array binding signal (z-score) (Glc(b1-6)Glc): -0.905
glycan array binding signal (z-score) (GlcA(b1-3)Gal): -0.625
glycan array binding signal (z-score) (GlcA(b1-3)GlcNAc): -0.041
glycan array binding signal (z-score) (GlcA(b1-6)Gal): -0.877
glycan array binding signal (z-score) [12]: 2.08
glycan array binding signal (z-score) [13]: -1.34
glycan array binding signal (z-score) [14]: -0.782
glycan array binding signal (z-score) [15]: -0.995
glycan array binding signal (z-score) [16]: -1.09
glycan array binding signal (z-score) [17]: -0.68
glycan array binding signal (z-score) [18]: -0.186
glycan array binding signal (z-score) [19]: 0.445
glycan array binding signal (z-score) [20]: -0.593
glycan array binding signal (z-score) [21]: -0.36
glycan array binding signal (z-score) [22]: -1.01
glycan array binding signal (z-score) [23]: -0.728
glycan array binding signal (z-score) [24]: -0.184
glycan array binding signal (z-score) [25]: 2.26
glycan array binding signal (z-score) [26]: 0.163
glycan array binding signal (z-score) [27]: -0.275
glycan array binding signal (z-score) [28]: -0.053
glycan array binding signal (z-score) [29]: -0.207
glycan array binding signal (z-score) [30]: -0.172
glycan array binding signal (z-score) [31]: 0.997
glycan array binding signal (z-score) [32]: 0.472
glycan array binding signal (z-score) [33]: 0.899
glycan array binding signal (z-score) [34]: -0.249
glycan array binding signal (z-score) [35]: -0.237
